Earlier results in patent publication US20210346506A1, “PRODRUG OF ITRACONAZOLE AND USES THEREOF” (priority 2020, published 2021).
For at least one compound, name, drawing or mass did not settle the structure.

Details: relatively low dose; comparable anti-fibrotic activity to nintedanib; cited from earlier work

SMILES: CCC(C)n1ncn(-c2ccc(N3CCN(c4ccc(OCC5COC(Cn6cncn6)(c6ccc(Cl)cc6Cl)O5)cc4)CC3)cc2)c1=O (stereo not shown) [Itraconazole]
- efficacy against IPF, in words: highly efficacious against IPF
